The supplement of paper PMC5949888
Most values lie at the floor of the assay. Slopes are relative: functional sequences can read slightly below zero.

Test system: Saccharomyces cerevisiae PS128 hsf1 delta, HSF1(1-493) fusion
Test: growth estimate (transactivation domain function in HSF1 fusion, heat-shock survival) (a.u. (slope of normalised read count over time)); higher = stronger growth at 37°C, i.e. more transactivation activity
Conditions: library: random library

| Substance | growth estimate |
| --- | --- |
| TGGGLKFVSIVGLKLEYFTH | < -0.25 |
| HVKCTPSRPQPL | < -0.25 |
| SNFHTLPGKRKASLSKTHAR | < -0.25 |
| GQGLSKNSRRYHTPSKKAM | < -0.25 |
| WLC | < -0.25 |
| RSTPSSVDRYDHARFCARGA | < -0.25 |
| KFEGFAYSRCITFGFKSTG | < -0.25 |
| IKATGHMSSRAGN | < -0.25 |
| GIAPGPPSLQIPGSVRVLFT | < -0.25 |
| RLYFSGSYVTGWSKSREDRV | < -0.25 |
| KSELKYYSVRKASPEIGHPG | < -0.25 |
| RQIISNIPFRNLQLCN | < -0.25 |
| VHFS | < -0.25 |
| IRVGRYGKRAIEPCSLLQRV | -0.246 |
| GGGHRPSCEGAPYLA | < -0.25 |
| LYSVIRQRGVVDFEQESMLR | < -0.25 |
| ATVGVPPHGLCGSKVVPATN | < -0.25 |
| VAVRWGSRGTVFPR | < -0.25 |
| LTQGPELYSHLAEHSYVIAK | < -0.25 |
| VPVGVLP | < -0.25 |
| CLWCPLFN | < -0.25 |
| HDCSYLPYYQER | < -0.25 |
| HRKRLDYVSVLFARHWVERH | < -0.25 |

| Substance | growth estimate |
| --- | --- |
| VMGLKEEFLKITPRSCDPP | < -0.25 |
| VVSL | < -0.25 |
| ENDQSL | < -0.25 |
| NIDSRARLLSMQ | < -0.25 |
| SHRLFYL | < -0.25 |
| WDLFQRIWSTDVSVGPHPCD | -0.243 |
| EQRGFYLY | < -0.25 |
| SRWLVF | < -0.25 |
| GIKVVSLVHNSNDYSY | < -0.25 |
| RSAMH | < -0.25 |
| LGVLTLSTPIFGFPNTKLQG | < -0.25 |
| LTFGGGSGSERSSSLDHHFQ | < -0.25 |
| YPIIYR | < -0.25 |
| PHEECFLLAVGIMLCPIRLC | < -0.25 |
| GGLGSWLN | -0.243 |
| GHYNSRLGW | < -0.25 |
| IDKHHMIGQPVTYGTQRGDT | < -0.25 |
| VSVDS | < -0.25 |
| ILESGRRLGNSRVAVPTHVN | < -0.25 |
| RRHGTHCFRESFADSPRFAK | < -0.25 |
| FMEL | < -0.25 |
| VSTVNLRL | < -0.25 |
| GGEIFRLRPAASSREYSAVR | < -0.25 |

3 entries from above, comma-delimited.
Substance,growth estimate
YPIIYR,< -0.25
PHEECFLLAVGIMLCPIRLC,< -0.25
GGLGSWLN,-0.243

(list continues)

| Substance | growth estimate |
| --- | --- |
| RDATIASPDGENG | < -0.25 |
| EGV | < -0.25 |
| RRKRSVKGILNRLQRSTSGN | < -0.25 |
| SVFTTGLRID | < -0.25 |
| LFRFLLIGFSLASWEPSGRS | < -0.25 |
| LRGRFSEWRL | < -0.25 |
| QGRGGRGTASHTSYLIWW | < -0.25 |
| HSYDSTCGI | < -0.25 |
| WWMCYPVGVTKQSKNDALYP | < -0.25 |
| SPTS | < -0.25 |
| HSRRVRER | < -0.25 |
| GTTSCVGDR | < -0.25 |
| VSVESGLCDLHGQRQGRLAQ | < -0.25 |
| KDSRPSLGCVSSD | < -0.25 |
| REVTRAWGRIGDLSANVLKS | < -0.25 |
| PRVAVHT | < -0.25 |
| TWGATHR | < -0.25 |
| LRSTI | < -0.25 |
| LCESFRINGRGLHP | < -0.25 |
| SRRIKAVLGSGSAER | < -0.25 |
| KTDCSPTARCNKPRGHAPTR | < -0.25 |
| CFGSRAAK | < -0.25 |
| PYSPVRPTFSQATMDTCPTR | < -0.25 |

| Substance | growth estimate |
| --- | --- |
| HVLLAGPPADTVERKTE | < -0.25 |
| EGTDVDLGGRGRRPLRV | < -0.25 |
| RLCKHNESGGMRFFRPQVDI | < -0.25 |
| GTTSN | < -0.25 |
| PERAVQGNVQLRQTNANDLY | < -0.25 |
| PLMLPNRRSCRE | < -0.25 |
| CIRSSVGEIGTTDPLSTREP | < -0.25 |
| RYITWMTSRGRESTTVRMAT | < -0.25 |
| QSGGPQTRGFSNYNFSMIL | < -0.25 |
| TLPDYRGQR | < -0.25 |
| ILISAWGRSVQRPFHVRSHR | < -0.25 |
| PPLCNNRG | < -0.25 |
| TRFTASAHQGLWHNKHPQAA | < -0.25 |
| VRGVLSAWRSCHWNYVGPNR | < -0.25 |
| AGWRRHCPRSGWVGMHGDTD | < -0.25 |
| RDPSDGARSLRAKDAHITVI | < -0.25 |
| ITNKPRFSYRAELRLPFVPC | < -0.25 |
| AGKDDTDRQPYLKYLTLLAL | < -0.25 |
| KVGSLCLVPMATEGHPDNAL | < -0.25 |
| LYTVLALDARAGSR | < -0.25 |
| TIADKVGESAASTGSTADRH | < -0.25 |
| CIVRDVRDLCTITSWAVLPG | < -0.25 |
| RSVVGGKNGSFEGTRVAREG | < -0.25 |

| Substance | growth estimate |
| --- | --- |
| GRCSVD | < -0.25 |
| KVGTGEEVSMGGHIGKN | < -0.25 |
| AAESRPPLCSEVDVGLTVRS | < -0.25 |
| IPLSGTYSGRDA | < -0.25 |
| IITEGRSVRGINCGRSIGPA | < -0.25 |
| WLGED | < -0.25 |
| GTGSVPISAAGKLEDTIRS | < -0.25 |
| IISV | < -0.25 |
| QHRRELPGTVLFY | < -0.25 |
| LQAWRMGPRD | < -0.25 |
| ACSVYQLQVFDLSPSCSSPF | -0.239 |
| ECFPTMPGITVISLPLERRL | < -0.25 |
| FKTTVERAQK | < -0.25 |
| MLDGARAHATNVSNWGSARV | < -0.25 |
| NAFKMAIILHAFPRNRTCSA | < -0.25 |
| RSLLSKLSAFCFEMRACLYL | < -0.25 |
| GGYRGESNI | < -0.25 |
| SASASDECHAYCRRLSAWLC | < -0.25 |
| VVMDELVEVAELSDL | < -0.25 |
| RNINY | < -0.25 |
| APLFVVFDWNVGDMDCDEIR | -0.127 |
| RCDDIPTGNLTTRVVALGAS | < -0.25 |
| PHRVLSTSCT | < -0.25 |

Some of the entries above in a different format.
PRVAVHT
  growth estimate = < -0.25
EGTDVDLGGRGRRPLRV
  growth estimate = < -0.25
RDPSDGARSLRAKDAHITVI
  growth estimate = < -0.25
SASASDECHAYCRRLSAWLC
  growth estimate = < -0.25

Further results follow.

| Substance | growth estimate |
| --- | --- |
| HQKIIQDKG | < -0.25 |
| PEIGNWGL | < -0.25 |
| CPWILSAFTIPCEVFPKSDV | < -0.25 |
| RYPVVRDHFFKR | < -0.25 |
| SAYGDYVLCLIRLIEGAVGW | < -0.25 |
| LDDIKGENIRHRARRRASAG | < -0.25 |
| VSSAD | < -0.25 |
| RHSLSLKASRRLETAYSRGL | < -0.25 |
| TSASRKTT | < -0.25 |
| LEF | < -0.25 |
| LWRLSEVAGLAPFPRRKGGV | < -0.25 |
| DYLVKPERLWTQRNFRENKS | < -0.25 |
| LQLAGKLRIVDGGLHFDGKS | < -0.25 |
| SSLGQMTLNLADWLDVAIVE | < -0.25 |
| FGCW | < -0.25 |
| GSVYWPYAC | < -0.25 |
| LKELRWLGRYIAGCVHS | < -0.25 |
| TRNNSPSLTVLFARRHSLEV | < -0.25 |
| TVFGSRTAYGMRPSAVAASF | -0.246 |
| LRGPSSR | < -0.25 |
| QGGHWG | < -0.25 |
| GSCLCEGGGQSAKKSLHPHS | < -0.25 |
| IKKLMRTEVMLIEDSYTTWF | < -0.25 |

| Substance | growth estimate |
| --- | --- |
| ALGLYGEG | < -0.25 |
| DGGKVRPSPPAPPTSASLSR | < -0.25 |
| EPNRLGGFKVRWGGPGRQMR | < -0.25 |
| FYYHLR | < -0.25 |
| FNNDFPIQMHGRPKVFF | < -0.25 |
| TVRTAISRINLRPLNSLSLS | < -0.25 |
| EADTYESWPGDGHWVWVSPR | < -0.25 |
| LRRVENASYRNSRYARALWI | < -0.25 |
| ASCCKHTYSIS | < -0.25 |
| TLFQLVRIQWGGRTRGEANN | -0.243 |
| SVM | < -0.25 |
| LIGGWTL | < -0.25 |
| NCRHEPS | < -0.25 |
| KNILSASFISTIGIHTEERH | < -0.25 |
| VGLLRDPLQTPWYKANSHVV | < -0.25 |
| LKGPSTCRRPHWVAFCCTVD | < -0.25 |
| SSAKKVISINLRYQIAVGYS | < -0.25 |
| YCLTLVSPLRAFS | < -0.25 |
| SPPAQPIQ | < -0.25 |
| FLPAHGPGWGMLMLQGYRPH | < -0.25 |
